Assay results reported in the supplement of paper PMC10849652.
The other results are listed elsewhere or left out.

Chains of the proteins cited; added tags and fusions are not shown. Lines headed by an entry give the natural chain unless they say otherwise; changes in a name come on top.
UniProt Q9Y4L1: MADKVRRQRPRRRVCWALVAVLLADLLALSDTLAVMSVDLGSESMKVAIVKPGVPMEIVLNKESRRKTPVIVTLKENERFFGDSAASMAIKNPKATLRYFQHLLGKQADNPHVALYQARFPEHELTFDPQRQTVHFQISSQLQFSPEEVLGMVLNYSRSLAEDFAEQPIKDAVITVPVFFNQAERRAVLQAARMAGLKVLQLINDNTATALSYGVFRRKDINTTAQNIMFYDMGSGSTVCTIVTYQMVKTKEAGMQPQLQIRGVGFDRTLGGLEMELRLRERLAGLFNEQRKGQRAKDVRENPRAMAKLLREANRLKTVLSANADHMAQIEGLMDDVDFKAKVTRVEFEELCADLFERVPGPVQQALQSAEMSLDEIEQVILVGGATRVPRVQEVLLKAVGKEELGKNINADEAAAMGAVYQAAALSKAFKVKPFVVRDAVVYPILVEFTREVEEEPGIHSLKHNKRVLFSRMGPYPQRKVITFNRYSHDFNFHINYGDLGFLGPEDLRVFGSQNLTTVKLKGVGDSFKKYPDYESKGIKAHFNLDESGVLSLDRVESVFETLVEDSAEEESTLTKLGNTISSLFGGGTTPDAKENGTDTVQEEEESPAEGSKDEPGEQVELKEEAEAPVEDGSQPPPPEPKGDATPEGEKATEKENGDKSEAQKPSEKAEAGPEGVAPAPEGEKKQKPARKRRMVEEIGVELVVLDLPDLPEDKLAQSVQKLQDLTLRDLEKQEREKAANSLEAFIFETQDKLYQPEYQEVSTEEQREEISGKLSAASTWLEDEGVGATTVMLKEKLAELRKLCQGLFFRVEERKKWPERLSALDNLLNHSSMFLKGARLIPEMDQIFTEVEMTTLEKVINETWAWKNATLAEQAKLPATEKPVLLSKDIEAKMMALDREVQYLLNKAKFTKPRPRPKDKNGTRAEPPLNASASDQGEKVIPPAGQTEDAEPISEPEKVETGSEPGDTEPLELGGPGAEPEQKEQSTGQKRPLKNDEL
UniProt P09429: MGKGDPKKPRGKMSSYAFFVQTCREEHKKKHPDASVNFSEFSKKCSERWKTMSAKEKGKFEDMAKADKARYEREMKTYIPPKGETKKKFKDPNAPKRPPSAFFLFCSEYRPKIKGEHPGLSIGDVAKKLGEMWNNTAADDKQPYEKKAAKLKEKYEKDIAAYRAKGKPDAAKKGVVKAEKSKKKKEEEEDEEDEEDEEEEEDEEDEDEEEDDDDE
UniProt Q3SXM5: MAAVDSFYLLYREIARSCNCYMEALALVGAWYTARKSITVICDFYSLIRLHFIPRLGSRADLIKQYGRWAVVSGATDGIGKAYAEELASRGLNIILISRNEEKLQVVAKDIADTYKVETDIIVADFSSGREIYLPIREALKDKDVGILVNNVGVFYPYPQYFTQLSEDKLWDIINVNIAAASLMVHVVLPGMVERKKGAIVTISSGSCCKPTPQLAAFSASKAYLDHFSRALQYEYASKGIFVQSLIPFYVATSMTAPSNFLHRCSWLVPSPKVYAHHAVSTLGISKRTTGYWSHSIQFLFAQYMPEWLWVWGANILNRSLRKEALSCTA
UniProt P31937: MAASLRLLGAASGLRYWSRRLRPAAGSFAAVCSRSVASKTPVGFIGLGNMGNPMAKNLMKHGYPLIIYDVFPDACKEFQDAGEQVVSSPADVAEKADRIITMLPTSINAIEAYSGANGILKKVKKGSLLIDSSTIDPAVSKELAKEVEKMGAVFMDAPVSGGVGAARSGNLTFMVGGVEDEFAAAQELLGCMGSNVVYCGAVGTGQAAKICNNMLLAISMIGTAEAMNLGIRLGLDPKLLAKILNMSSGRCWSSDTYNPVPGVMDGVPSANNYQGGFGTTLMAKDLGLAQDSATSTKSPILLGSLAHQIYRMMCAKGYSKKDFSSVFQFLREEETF
UniProt Q58FG1, whole entry, looked up: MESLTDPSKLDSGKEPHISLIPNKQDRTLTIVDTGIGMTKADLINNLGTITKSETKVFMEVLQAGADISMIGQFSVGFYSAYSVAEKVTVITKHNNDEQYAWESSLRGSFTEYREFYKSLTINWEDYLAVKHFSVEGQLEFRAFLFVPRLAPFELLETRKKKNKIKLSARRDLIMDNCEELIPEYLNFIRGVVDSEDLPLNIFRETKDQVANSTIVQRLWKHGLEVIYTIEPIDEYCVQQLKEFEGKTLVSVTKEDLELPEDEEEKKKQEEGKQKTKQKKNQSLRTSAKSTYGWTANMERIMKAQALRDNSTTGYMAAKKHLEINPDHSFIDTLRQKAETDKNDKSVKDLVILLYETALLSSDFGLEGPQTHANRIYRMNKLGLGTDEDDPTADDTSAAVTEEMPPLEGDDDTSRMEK
UniProt P31942: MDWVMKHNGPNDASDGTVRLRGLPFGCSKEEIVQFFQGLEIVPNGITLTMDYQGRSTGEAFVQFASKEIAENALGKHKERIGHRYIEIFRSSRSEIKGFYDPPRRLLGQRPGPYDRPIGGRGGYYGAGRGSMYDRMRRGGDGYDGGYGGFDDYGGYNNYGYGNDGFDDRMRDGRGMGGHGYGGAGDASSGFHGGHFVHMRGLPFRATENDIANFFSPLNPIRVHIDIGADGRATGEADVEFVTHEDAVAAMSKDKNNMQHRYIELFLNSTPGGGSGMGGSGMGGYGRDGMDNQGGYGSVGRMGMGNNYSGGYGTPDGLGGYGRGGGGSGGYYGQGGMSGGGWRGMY
UniProt P00738: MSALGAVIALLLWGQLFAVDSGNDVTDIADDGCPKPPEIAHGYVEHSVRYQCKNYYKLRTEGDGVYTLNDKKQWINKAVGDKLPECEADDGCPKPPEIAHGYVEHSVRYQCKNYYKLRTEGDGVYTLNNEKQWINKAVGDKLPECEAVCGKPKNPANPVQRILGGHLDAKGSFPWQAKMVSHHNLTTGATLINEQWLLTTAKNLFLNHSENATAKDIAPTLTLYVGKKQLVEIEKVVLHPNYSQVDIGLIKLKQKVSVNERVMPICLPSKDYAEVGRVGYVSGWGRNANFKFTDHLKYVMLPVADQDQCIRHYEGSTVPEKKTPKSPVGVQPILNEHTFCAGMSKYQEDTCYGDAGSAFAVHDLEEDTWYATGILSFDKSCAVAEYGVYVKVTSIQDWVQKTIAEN
UniProt Q6NVY1: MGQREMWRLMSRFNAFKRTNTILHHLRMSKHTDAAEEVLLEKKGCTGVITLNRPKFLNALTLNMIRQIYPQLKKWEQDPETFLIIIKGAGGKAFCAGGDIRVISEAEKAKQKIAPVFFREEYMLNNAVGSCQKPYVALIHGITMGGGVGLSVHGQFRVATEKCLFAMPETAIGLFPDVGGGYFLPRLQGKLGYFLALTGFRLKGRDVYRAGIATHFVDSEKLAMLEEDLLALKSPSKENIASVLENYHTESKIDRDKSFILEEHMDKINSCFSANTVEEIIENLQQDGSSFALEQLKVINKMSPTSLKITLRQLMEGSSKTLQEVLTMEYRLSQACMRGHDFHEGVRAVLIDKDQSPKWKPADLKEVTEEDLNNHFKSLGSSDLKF
UniProt Q7LGA3: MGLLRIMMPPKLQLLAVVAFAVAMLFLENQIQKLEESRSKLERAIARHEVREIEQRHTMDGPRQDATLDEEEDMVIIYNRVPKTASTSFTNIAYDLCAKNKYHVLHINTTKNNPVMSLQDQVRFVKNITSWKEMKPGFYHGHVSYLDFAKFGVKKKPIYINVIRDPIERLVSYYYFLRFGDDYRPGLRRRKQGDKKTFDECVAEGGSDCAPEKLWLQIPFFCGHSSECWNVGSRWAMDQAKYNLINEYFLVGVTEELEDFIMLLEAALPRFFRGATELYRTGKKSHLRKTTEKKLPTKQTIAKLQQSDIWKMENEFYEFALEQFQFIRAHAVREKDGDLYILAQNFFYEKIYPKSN
UniProt Q92506: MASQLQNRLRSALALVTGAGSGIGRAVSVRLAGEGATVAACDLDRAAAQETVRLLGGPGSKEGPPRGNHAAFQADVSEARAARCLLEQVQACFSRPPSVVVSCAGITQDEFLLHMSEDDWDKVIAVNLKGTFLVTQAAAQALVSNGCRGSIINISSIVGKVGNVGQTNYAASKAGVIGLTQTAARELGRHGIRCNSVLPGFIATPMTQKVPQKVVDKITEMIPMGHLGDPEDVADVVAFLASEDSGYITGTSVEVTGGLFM
UniProt P82970: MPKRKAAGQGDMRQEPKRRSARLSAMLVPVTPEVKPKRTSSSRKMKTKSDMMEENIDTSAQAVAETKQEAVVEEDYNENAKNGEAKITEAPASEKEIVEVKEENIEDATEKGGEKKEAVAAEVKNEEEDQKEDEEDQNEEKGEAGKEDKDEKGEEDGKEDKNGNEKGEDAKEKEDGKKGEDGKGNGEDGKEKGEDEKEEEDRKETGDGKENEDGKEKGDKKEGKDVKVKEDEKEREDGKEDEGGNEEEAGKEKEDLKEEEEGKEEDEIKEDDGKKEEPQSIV
UniProt P04792, whole entry, looked up: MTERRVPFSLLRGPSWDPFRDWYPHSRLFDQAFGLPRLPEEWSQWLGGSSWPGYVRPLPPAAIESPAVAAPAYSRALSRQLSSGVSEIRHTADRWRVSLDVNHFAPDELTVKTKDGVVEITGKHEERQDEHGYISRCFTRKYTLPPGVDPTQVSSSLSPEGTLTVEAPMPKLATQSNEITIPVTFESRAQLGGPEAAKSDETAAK
UniProt Q00839, whole entry, looked up: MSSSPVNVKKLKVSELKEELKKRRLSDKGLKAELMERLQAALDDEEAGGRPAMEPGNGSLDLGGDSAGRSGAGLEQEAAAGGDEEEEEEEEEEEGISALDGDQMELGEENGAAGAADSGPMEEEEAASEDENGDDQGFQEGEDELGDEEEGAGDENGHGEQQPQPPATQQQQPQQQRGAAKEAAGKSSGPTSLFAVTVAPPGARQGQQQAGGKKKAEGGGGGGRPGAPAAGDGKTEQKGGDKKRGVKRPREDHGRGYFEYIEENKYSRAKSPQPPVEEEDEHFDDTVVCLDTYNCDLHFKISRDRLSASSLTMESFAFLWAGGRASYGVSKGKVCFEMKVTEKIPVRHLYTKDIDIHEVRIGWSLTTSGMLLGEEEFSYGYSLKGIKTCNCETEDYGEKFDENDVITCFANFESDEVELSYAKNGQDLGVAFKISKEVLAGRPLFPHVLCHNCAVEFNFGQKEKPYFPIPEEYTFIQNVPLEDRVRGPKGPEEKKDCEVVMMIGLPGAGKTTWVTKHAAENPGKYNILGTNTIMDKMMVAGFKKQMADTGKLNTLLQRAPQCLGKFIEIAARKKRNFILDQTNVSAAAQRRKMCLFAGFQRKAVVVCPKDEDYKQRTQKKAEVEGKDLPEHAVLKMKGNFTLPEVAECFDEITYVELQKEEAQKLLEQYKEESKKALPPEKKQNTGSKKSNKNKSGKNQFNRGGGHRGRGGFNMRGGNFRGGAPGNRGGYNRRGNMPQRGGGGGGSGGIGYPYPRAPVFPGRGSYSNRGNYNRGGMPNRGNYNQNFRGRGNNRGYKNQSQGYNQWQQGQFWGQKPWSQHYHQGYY
UniProt P17096: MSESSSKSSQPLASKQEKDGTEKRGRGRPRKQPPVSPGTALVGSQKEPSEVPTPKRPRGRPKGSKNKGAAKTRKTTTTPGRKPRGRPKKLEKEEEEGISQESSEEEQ
UniProt Q14773: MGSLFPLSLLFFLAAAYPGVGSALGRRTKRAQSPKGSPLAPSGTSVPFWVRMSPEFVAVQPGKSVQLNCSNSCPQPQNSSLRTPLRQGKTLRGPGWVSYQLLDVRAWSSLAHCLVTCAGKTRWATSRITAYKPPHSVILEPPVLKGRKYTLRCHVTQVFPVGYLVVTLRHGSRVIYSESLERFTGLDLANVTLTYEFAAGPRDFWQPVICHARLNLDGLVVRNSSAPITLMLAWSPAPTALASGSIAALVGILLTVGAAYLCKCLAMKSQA
UniProt O43464: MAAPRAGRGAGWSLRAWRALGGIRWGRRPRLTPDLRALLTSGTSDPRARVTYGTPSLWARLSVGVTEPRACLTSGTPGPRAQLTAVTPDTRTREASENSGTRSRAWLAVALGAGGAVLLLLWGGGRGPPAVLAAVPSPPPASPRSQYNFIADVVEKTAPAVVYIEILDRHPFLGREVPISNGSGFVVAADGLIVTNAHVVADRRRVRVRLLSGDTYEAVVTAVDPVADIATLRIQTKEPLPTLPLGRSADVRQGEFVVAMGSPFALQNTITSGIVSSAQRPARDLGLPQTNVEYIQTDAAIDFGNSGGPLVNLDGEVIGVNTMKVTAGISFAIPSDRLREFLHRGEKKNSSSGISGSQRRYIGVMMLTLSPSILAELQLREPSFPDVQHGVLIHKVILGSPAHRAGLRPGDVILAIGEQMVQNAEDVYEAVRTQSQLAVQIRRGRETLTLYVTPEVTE

Columns and labels:
Assay in all cases: log2 fold change, soluble protein after heating vs DMSO (PISA); higher = thermal stabilisation; K562 cells, 10 uM, 30 min; active = over 0.2 and 3.5 SD of the protein, either way, in both replicates (recomputed)
[1] = compound: CS(=O)(=O)c1ccc(-c2cnc(N)c(C(=O)Nc3ccccc3)n2)cc1
In short: (§1)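 K562 cells at 2×10^6 cells/mL were exposed to 10 μM compound for 30 min, then aliquots were heated for 3 min across 48°C-58°C, pooled, and extracted in PBS containing 0.5% NP-40 at 4°C. The supernatant after 21,000xg for 90 min was taken as soluble protein and measured by TMTpro 16plex LC-MS/MS with channel sums equalised. Thermal stability is reported relative to control samples, with values from duplicates. Fold changes are given on a log2 scale.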

crizotinib = compound: C[C@@H](Oc1cc(-c2cnn(C3CCNCC3)c2)cnc1N)c1c(Cl)ccc(F)c1Cl [crizotinib]
In short: as §1

[2] = compound: C[C@@H]1COCCN1C2=NC(=NC(=C2)C3(CC3)S(=O)(=O)C)C4=C5C=CNC5=CC=C4
In short: as §1

[3] = compound: C[C@H](C1=CC=C(C=C1)C(=O)NC2=C3C=CNC3=NC=C2)N
In short: as §1

duvelisib = compound: C[C@H](Nc1ncnc2nc[nH]c12)c1cc2cccc(Cl)c2c(=O)n1-c1ccccc1 [duvelisib]
In short: as §1

gandotinib = compound: Cc1cc(Nc2cc(CN3CCOCC3)c3nc(C)c(Cc4ccc(Cl)cc4F)n3n2)n[nH]1 [gandotinib]
In short: as §1

tozasertib = compound: Cc1cc(Nc2cc(N3CCN(C)CC3)nc(Sc3ccc(NC(=O)C4CC4)cc3)n2)n[nH]1 [tozasertib]
In short: as §1

[4] = compound: Cc1cc(SCc2sc(-c3ccc(C(F)(F)F)cc3)nc2C)ccc1OCC(=O)O
In short: as §1

doramapimod = compound: Cc1ccc(-n2nc(C(C)(C)C)cc2NC(=O)Nc2ccc(OCCN3CCOCC3)c3ccccc23)cc1 [doramapimod]
In short: as §1

ispinesib = compound: Cc1ccc(C(=O)N(CCCN)[C@@H](c2nc3cc(Cl)ccc3c(=O)n2Cc2ccccc2)C(C)C)cc1 [ispinesib]
In short: as §1

bafetinib = compound: Cc1ccc(NC(=O)c2ccc(CN3CC[C@H](N(C)C)C3)c(C(F)(F)F)c2)cc1Nc1nccc(-c2cncnc2)n1 [bafetinib]
In short: as §1

[5] = compound: Cc1cccc(CC(=O)N2CCc3c2ccc(-c2cn(C)c4ncnc(N)c24)c3F)n1
In short: as §1

nilotinib = compound: Cc1cn(-c2cc(NC(=O)c3ccc(C)c(Nc4nccc(-c5cccnc5)n4)c3)cc(C(F)(F)F)c2)cn1 [nilotinib]
In short: as §1

[6] = compound: Cc1nc(Nc2n[nH]c3c2CN(C(=O)N[C@H](CN(C)C)c2ccccc2)C3(C)C)c2sccc2n1
In short: as §1

dasatinib = compound: Cc1nc(Nc2ncc(C(=O)Nc3c(C)cccc3Cl)s2)cc(N2CCN(CCO)CC2)n1 [dasatinib]
In short: as §1

[7] = compound: Cc1ncc(-c2ccnc(Nc3ccc(S(C)(=O)=O)cc3)n2)n1C(C)C
In short: as §1

[8] = compound: Cn1cc(-c2ccc3c(c2)CCN3C(=O)Cc2cccc(C(F)(F)F)c2)c2c(N)ncnc21
In short: as §1

[9] = compound: Cn1cc(-c2ccc3nnc(C(F)(F)c4ccc5ncccc5c4)n3n2)cn1
In short: as §1

tipifarnib = compound: Cn1cncc1[C@@](N)(c1ccc(Cl)cc1)c1ccc2c(c1)c(-c1cccc(Cl)c1)cc(=O)n2C [tipifarnib]
In short: as §1

mubritinib = compound: FC(F)(F)c1ccc(/C=C/c2nc(COc3ccc(CCCCn4ccnn4)cc3)co2)cc1 [mubritinib]
In short: as §1

Measured: log2 fold change

HYOU1 (UniProt Q9Y4L1)
inactive: [1] -0.025 | crizotinib 0.018 | [2] -0.028 | [3] 0.076 | duvelisib -0.05 | gandotinib 0.028 | tozasertib 0.022 | [4] 0.032 | doramapimod 0.029 | ispinesib -0.003 | bafetinib 0.039 | [5] 0 | nilotinib -0.028 | [6] 0.028 | dasatinib 0.005 | [7] -0.036 | [8] -0.043 | [9] -0.025 | tipifarnib 0.016 | mubritinib -0.128

HMGB1 (UniProt P09429)
inactive: [1] -0.016 | crizotinib -0.106 | [2] -0.092 | [3] -0.042 | duvelisib -0.003 | gandotinib -0.05 | tozasertib -0.052 | [4] 0.006 | doramapimod 0.006 | ispinesib 0.011 | bafetinib -0.007 | [5] -0.106 | nilotinib 0.065 | [6] -0.01 | dasatinib 0.022 | [7] 0.012 | [8] 0.002 | [9] -0.046 | tipifarnib -0.019 | mubritinib 0

HSDL1 (UniProt Q3SXM5)
inactive: [1] -0.002 | crizotinib 0.042 | [2] 0.058 | [3] -0.062 | duvelisib 0.065 | gandotinib -0.041 | tozasertib 0.003 | [4] -0.041 | doramapimod 0.047 | ispinesib 0.042 | bafetinib -0.052 | [5] -0.032 | nilotinib -0.045 | [6] 0.013 | dasatinib 0.004 | [7] -0.013 | [8] 0.094 | [9] -0.062 | tipifarnib -0.036 | mubritinib 0.035

HIBADH (UniProt P31937)
inactive: [1] -0.02 | crizotinib 0.04 | [2] 0.065 | [3] -0.048 | duvelisib 0.014 | gandotinib -0.011 | tozasertib -0.015 | [4] -0.016 | doramapimod 0.031 | ispinesib 0.023 | bafetinib -0.012 | [5] -0.031 | nilotinib 0.032 | [6] 0.037 | dasatinib 0.034 | [7] -0.021 | [8] 0.048 | [9] 0.006 | tipifarnib 0.01 | mubritinib -0.004

HSP90AA4P (UniProt Q58FG1)
inactive: [1] 0.112 | crizotinib 0.06 | [2] 0.06 | [3] 0.228 | duvelisib 0.162 | gandotinib -0.121 | tozasertib -0.06 | [4] -0.042 | doramapimod 0.013 | ispinesib -0.148 | bafetinib -0.148 | [5] -0.23 | nilotinib 0.074 | [6] 0.124 | dasatinib 0.108 | [7] -0.049 | [8] -0.003 | [9] 0 | tipifarnib 0.091 | mubritinib 0.029

HNRNPH3 (UniProt P31942)
inactive: [1] -0.075 | crizotinib -0.089 | [2] -0.181 | [3] 0.516 | duvelisib -0.072 | gandotinib 0.207 | tozasertib -0.013 | [4] 0.125 | doramapimod 0.059 | ispinesib -0.151 | bafetinib 0.052 | [5] -0.081 | nilotinib 0.024 | [6] -0.149 | dasatinib -0.016 | [7] -0.004 | [8] -0.231 | [9] -0.136 | tipifarnib -0.01 | mubritinib -0.247

HP (UniProt P00738)
inactive: [1] 0.075

2 successive records already listed, quoted:
HNRNPH3 (UniProt P31942)
inactive: [1] -0.075 | crizotinib -0.089 | [2] -0.181 | [3] 0.516 | duvelisib -0.072 | gandotinib 0.207 | tozasertib -0.013 | [4] 0.125 | doramapimod 0.059 | ispinesib -0.151 | bafetinib 0.052 | [5] -0.081 | nilotinib 0.024 | [6] -0.149 | dasatinib -0.016 | [7] -0.004 | [8] -0.231 | [9] -0.136 | tipifarnib -0.01 | mubritinib -0.247

HP (UniProt P00738)
inactive: [1] 0.075

Later entries:

HIBCH (UniProt Q6NVY1)
inactive: [1] 0.032 | crizotinib -0.054 | [2] 0.161 | [3] -0.023 | duvelisib 0.036 | gandotinib -0.088 | tozasertib -0.057 | [4] 0.041 | doramapimod -0.009 | ispinesib -0.05 | bafetinib 0.011 | [5] -0.008 | nilotinib -0.003 | [6] 0.021 | dasatinib -0.092 | [7] -0.019 | [8] 0.09 | [9] 0.047 | tipifarnib -0.102 | mubritinib -0.028

HS2ST1 (UniProt Q7LGA3)
inactive: [1] 0.009 | crizotinib 0.056 | [2] -0.045 | [3] 0.011 | duvelisib -0.045 | gandotinib 0.144 | tozasertib -0.01 | [4] -0.106 | doramapimod -0.028 | ispinesib -0.021 | bafetinib -0.067 | [5] 0.061 | nilotinib -0.006 | [6] 0.028 | dasatinib 0.03 | [7] 0.02 | [8] -0.031 | [9] 0.029 | tipifarnib 0.039 | mubritinib -0.049

HSD17B8 (UniProt Q92506)
inactive: [1] -0.082 | crizotinib 0.07 | [2] -0.025 | [3] -0.055 | duvelisib 0.039 | gandotinib -0.007 | tozasertib 0.015 | [4] -0.046 | doramapimod -0.022 | ispinesib 0.044 | bafetinib -0.03 | [5] -0.012 | nilotinib -0.102 | [6] 0.075 | dasatinib 0.008 | [7] -0.051 | [8] 0.135 | [9] 0.046 | tipifarnib 0.015 | mubritinib 0.031

HMGN5 (UniProt P82970)
inactive: [1] 0.013 | crizotinib 0.098 | [2] -0.004 | [3] -0.032 | duvelisib 0.045 | gandotinib 0.076 | tozasertib 0.063 | [4] -0.044 | doramapimod -0.031 | ispinesib 0.079 | bafetinib -0.026 | [5] -0.026 | nilotinib 0.057 | [6] 0.002 | dasatinib 0.067 | [7] 0.026 | [8] 0.019 | [9] -0.004 | tipifarnib 0 | mubritinib 0.016

HSPB1 (UniProt P04792)
inactive: [1] 0.027 | crizotinib 0.048 | [2] -0.03 | [3] 0.026 | duvelisib -0.027 | gandotinib -0.005 | tozasertib 0.059 | [4] 0.02 | doramapimod 0.164 | ispinesib -0.031 | bafetinib 0.023 | [5] -0.003 | nilotinib 0.092 | [6] -0.115 | dasatinib -0.043 | [7] 0 | [8] -0.044 | [9] -0.055 | tipifarnib 0.003 | mubritinib -0.029

HSPG2 (UniProt P98160)
inactive: [1] -0.059 | crizotinib 0.136 | [2] -0.14 | [3] -0.056 | duvelisib 0.055 | gandotinib 0.037 | tozasertib -0.016 | [4] 0.028 | doramapimod -0.026 | ispinesib -0.066 | bafetinib -0.024 | [5] -0.022 | nilotinib 0.033 | [6] 0.005 | dasatinib 0.027 | [7] -0.048 | [8] 0.008 | [9] -0.085 | tipifarnib 0.193 | mubritinib 0.008

HNRNPU (UniProt Q00839)
inactive: [1] -0.057 | crizotinib -0.234 | [2] -0.003 | [3] 0.161 | duvelisib -0.093 | gandotinib -0.04 | tozasertib 0.012 | [4] 0.111 | doramapimod 0.038 | ispinesib -0.142 | bafetinib 0.126 | [5] 0.012 | nilotinib -0.104 | [6] -0.077 | dasatinib 0.009 | [7] 0.073 | [8] -0.273 | [9] 0.002 | tipifarnib 0.038 | mubritinib -0.239

HMGA1 (UniProt P17096)
inactive: [1] -0.14 | crizotinib 0.008 | [2] -0.244 | [3] 0.126 | duvelisib -0.153 | gandotinib -0.033 | tozasertib 0.014 | [4] -0.045 | doramapimod 0.056 | ispinesib -0.13 | bafetinib 0.15 | [5] -0.126 | nilotinib -0.01 | [6] 0.035 | dasatinib 0.165 | [7] -0.053 | [8] -0.091 | [9] -0.066 | tipifarnib 0.105 | mubritinib -0.029

ICAM4 (UniProt Q14773)
inactive: [1] -0.009 | crizotinib 0.024 | [2] -0.053 | [3] 0.033 | duvelisib 0.085 | gandotinib -0.049 | tozasertib 0.036 | [4] 0.032 | doramapimod 0.074 | ispinesib -0.042 | bafetinib 0.002 | [5] 0.116 | nilotinib 0.012 | [6] 0.027 | dasatinib -0.05 | [7] -0.018 | [8] 0.012 | [9] 0.013 | tipifarnib 0.053 | mubritinib -0.034

HTRA2 (UniProt O43464)
inactive: [1] 0.022 | crizotinib 0.055 | [2] 0.039 | [3] -0.045 | duvelisib 0.035 | gandotinib 0.007 | tozasertib 0.015 | [4] -0.039 | doramapimod -0.039 | ispinesib -0.016 | bafetinib -0.087 | [5] -0.036 | nilotinib -0.027 | [6] -0.008 | dasatinib -0.013 | [7] -0.006 | [8] -0.008 | [9] 0.027 | tipifarnib -0.002 | mubritinib 0.047
